Laboratory results published in patent US20110301034A1, “ISOTHIAZOLE AND PYRAZOLE DERIVATIVES FOR USE AS PLANT GROWTH REGULATORS” (SYNGENTA CROP PROTECTION LLC, priority 2008, published 2011).
For at least one compound, name, drawing or mass did not settle the structure.

System: wheat plants cultivar (cv.). Riband
Assay: Plant growth regulation effects on wheat
Assay type: in vivo
Conditions: 600 ppm; 2 weeks old wheat plants sprayed with formulated compound; assessed after 8 days at 22° C. and 80% r.h. in greenhouse

## Cn1nc(-c2ccc(Cl)cc2)c(C(O)c2cccnc2)c1-c1ccc(F)cc1F (stereo not shown) [Compound B87, [3-(4-Chloro-phenyl)-5-(2,4-difluoro-phenyl)-1-methyl-1H-pyrazol-4-yl]-pyridin-3-yl-methanol]
  plant growth regulating effects (side shoot): side shoot increased
